# Reference: PubChem BioAssay AID2685 (National Center for Advancing Translational Sciences (NCATS), 2010)
# The campaign covered roughly 320,000 compounds. About 2,100 (0.66%) were called active. The shares of active, inactive and inconclusive entries below differ from those in the screen. Calls follow the shape of the dose curve; as a rule, active = well fitted inhibition curve with a large enough effect in the signal ratio, with a control signal flat (not every such curve was filed as active); inconclusive = small, poorly fitted or top-dose-only effect, or effect the other way, or a change in a side signal; inactive = flat fitted curve, though single readings scatter; the % refers to the signal ratio. Where the call is inconclusive, the potency comes from a doubtful curve fit.
# Assay: qHTS Assay for Lipid Storage Modulators in Drosophila S3 Cells
# Conditions: BODIPY lipid droplet fluorescence, 18-24 h, cells fed with added oleic acid; lipid storage change, negative = inhibition: at 46.1 µM (top of the series) unless noted
# In short: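 Drosophila S3 cells loaded with oleic acid (400 uM, as added) and compounds at several concentrations; lipid droplets imaged by 488-nm laser-scanning cytometry, 500–530 nm intensity and object ratio to cell channel. Percent activity normalized to 20 uM Triacsin C.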
# % is scaled to controls: 0 for no effect and ±100 for the full control effect; potency is read from the fitted curve at half-maximal effect.
SMILES,"lipid storage change, negative = inhibition",Potency
COc1cc(C(=O)Nc2ccc(C(C)=O)cc2)c(Br)c(OC)c1OC,inconclusive: 25.6%,
O=C(NNC(=O)c1ccccc1O)c1cccc(Br)c1,,"inconclusive: 29.1 µM [activator, single point]"
Cc1ccc(S(=O)(=O)N2CCCC2CNC(=O)C(=O)NC2CCCC2)cc1 (stereo not given),inconclusive: -8.67%,
Cc1ccc(C(=O)NNc2ncnc3c2cnn3C)cc1,inactive,
Cc1cc(C(=O)Nc2ccc(S(=O)(=O)Nc3nccs3)cc2)c(C)o1,inconclusive: 2.42%,
CC(Sc1nccn1C)C(=O)Nc1ccc(C(N)=O)cc1 (stereo not given),inactive: -16.1% [at 0.0737 µM],
Cn1cc(CN2CCC(n3nccc3NC(=O)CCc3ccccc3)CC2)cn1,inconclusive: 36.1%,
OCc1ncccc1O,,"inconclusive: 20.6 µM [falling, single point]"
Fc1ccc(OCCCCCCN2CCCC2)cc1,inconclusive: -9.99%,
COc1ccc(C2N(C(=O)c3ccccc3)CCN2C(=O)c2ccc(C)cc2)cc1 (stereo not given),inconclusive: -33%,
CCOc1ccc(C(c2c(O)nc(SC)n(C)c2=O)c2c(O)nc(SC)n(C)c2=O)cc1,inconclusive: -51.2%,
O=C(NCCC1=CCCCC1)C1COc2ccccc2O1 (stereo not given),inconclusive: -10.5%,
Cn1c(=O)c2c(nc(CN3CCc4ccccc4C3)n2Cc2ccccc2)n(C)c1=O,,"inconclusive: 29.1 µM [falling, single point]"
Brc1cc2c(cc1CN1CCc3ccccc3C1)OCO2,inconclusive: 14.2%,
CC1(C)CC2(C)OCCN2C(=S)N1 (stereo not given),inconclusive: -28.3%,
O=C1C(=O)N(c2ccccn2)C(c2ccc(Br)cc2)/C1=C(/O)c1ccc(Br)cc1 (stereo not given),,"inconclusive: 29.1 µM [activator, single point]"
OCC1(CO)COC(CCc2ccccc2)=N1,inconclusive: 13.5%,
CC(C(=O)Nc1ccccn1)N1C(=O)C2C3C=CC(C3)C2C1=O (stereo not given),inconclusive: -8.81%,
Cc1ccc(S(=O)(=O)CCC(=O)N(Cc2nnc(-c3ccc(Cl)cc3)o2)C2CC2)cc1,inconclusive: 2.93%,
OC(CNC1CCCC1)COc1c(F)cc(Br)cc1F (stereo not given),inconclusive: -15.2%,
COc1ccc(-n2nc3c(c2NC(=O)C24CC5CC(CC(C5)C2)C4)CS(=O)C3)cc1 (stereo not given),inconclusive: 9.81%,
O=C(NCCc1ccccc1F)c1ccc2c(c1)OCCO2,,"inconclusive: 6.51 µM [activator, partial curve, poor fit]"
Cc1ccc2occ(/C=N/NC(=O)c3ccc(Cl)cc3)c(=O)c2c1,inconclusive: 13.1%,
CCCC(C)NC(=O)CSCc1ccc(OC)cc1 (stereo not given),,"inconclusive: 0.112 µM [falling, full curve, poor fit]"
N#Cc1c(NC(=O)COC(=O)c2ccc(F)cc2)sc2c1CCC2,inconclusive: 16.6%,
Cc1nc(-c2ccc(F)cc2)c(CC(=O)N(C)CC(=O)Nc2ccc(F)cc2)s1,inconclusive: -100%,
O=C(C1=C(O)C(=O)N(c2ncccn2)C1c1ccc(Cl)cc1)c1ccco1 (stereo not given),inactive,

# Complete entries, looked up by structure.
# Cc1ccc2occ(/C=N/NC(=O)c3ccc(Cl)cc3)c(=O)c2c1 reads lipid storage change, negative = inhibition: inconclusive: 13.1%
# N#Cc1c(NC(=O)COC(=O)c2ccc(F)cc2)sc2c1CCC2 reads lipid storage change, negative = inhibition: inconclusive: 16.6%

# (next part)

SMILES,"lipid storage change, negative = inhibition",Potency
COC(=O)c1ccc(C2Nc3ccccc3NC3=C2C(=O)CC(C)(C)C3)cc1 (stereo not given),,"inconclusive: 29.1 µM [activator, single point]"
Cc1c(C(=O)Nc2nccs2)oc2c(Cl)cccc12,inconclusive,
O=C(c1ccc(Cl)c(S(=O)(=O)Nc2ccccc2C(=O)N2CCc3ccccc3C2)c1)N1CCc2ccccc2C1,,"inconclusive: 5.8 µM [activator, partial curve]"
Cc1ccc(Sc2nc(C)cc(C)c2S(C)(=O)=O)cc1,inconclusive: -0.621%,
CCn1ncc(C(=O)Nc2ccc(S(=O)(=O)N3CCCC3)cc2)c1C,inconclusive: 22.6%,
Cc1onc(-c2ccccc2Cl)c1C(=O)NCc1ccccc1F,,"inconclusive: 29.1 µM [activator, single point]"
COc1ccc(OC)c(NS(=O)(=O)c2cccc3cccnc23)c1,,"inconclusive: 29.1 µM [falling, single point]"
CCCOc1nc2c(c(=O)n(C)c(=O)n2C)n1C,inconclusive: 4.26%,
Cc1ccc(C[n+]2ccccc2)cc1,inconclusive: 19.6%,
Cc1ccc2cccc(OCCCOc3ccccc3CO)c2n1,,"inconclusive: 8.2 µM [activator, partial curve]"
COc1ccc(-n2nc([N+](=O)[O-])c(=NCCc3ccccc3)n2O)cc1,,"inconclusive: 2.91 µM [activator, single point]"
c1cnc(N2CCSCC2)nc1,,"inconclusive: 0.651 µM [falling, full curve, poor fit]"
N=c1ncn(CC(O)CN2CCOCC2)c2nc(N3CCOCC3)[nH]c12 (stereo not given),inconclusive: -3.45%,
CC(C)(C)C(=O)/C=C(\N)c1ccncc1,inconclusive: 51.5%,
CC(C(=O)Nc1ccccc1C(=O)O)n1c(C(F)(F)F)nc2ccccc21 (stereo not given),inconclusive: 35.4%,
NC(=O)c1cc([N+](=O)[O-])ccc1NCc1ccc(N)cc1,inconclusive: 0.136%,
O=C(CSc1nc2ccccc2o1)N/N=C/c1ccc(C(=O)O)cc1,,"inconclusive: 0.103 µM [cytotoxic, full curve]"
Cc1ccc(C)c(N2CCN(C(=O)CCCn3c(=O)c4cccn4c4cccnc43)CC2)c1,,"inconclusive: 4.61 µM [falling, single point]"
O=[N+]([O-])c1cccc(-c2ccc(SCc3cccnc3)nn2)c1,inconclusive: 15%,
CN1C(C(=O)NCc2ccco2)CC2Cn3c(nc4cc5ccccc5cc43)C21 (stereo not given),inactive,
O=C(OCC(=O)N1CCCC1=O)c1ccc(Cl)cc1[N+](=O)[O-],inconclusive,
Cc1ccc(-c2noc(CCC(=O)Nc3cc(C)ccn3)n2)cc1,inconclusive: -0.557%,
CCn1c2ccccc2c2cc(NC(=O)CN3CCCC3)ccc21,inconclusive: -19.6%,
Cc1c(C#N)c2ncn(CCCN(C)C)c(=O)c2n1-c1ccccc1,inconclusive: -0.725%,
COc1ccccc1-c1csc(NC(=O)c2ccc(N3C(=O)CCC3=O)cc2)n1,inconclusive: 57.5%,
CCC[C@H](CN[C@@H](CNC)[C@H](C)O)NCCc1ccc(OC)cc1,inconclusive: 20.2%,
Cc1cc(C)n2nc(SCC(=O)N(CC(C)C)c3c(N)n(CC(C)C)c(=O)[nH]c3=O)nc2n1,inconclusive: -12%,

SMILES,"lipid storage change, negative = inhibition",Potency
O=C(Oc1ccccc1N1CCOCC1)c1ccccc1,inconclusive: 7.09%,
O=C(O)CCC(NC(=S)Nc1ccccc1)C(=O)O (stereo not given),inconclusive: -2.01%,
Cc1ccc(CNCc2ccco2)cc1,inconclusive: 9.64%,
Cc1ncc2c(c1OC(=O)c1ccccc1)COC(C)(C)OC2,inconclusive: 0.429%,
COc1cc(NC(=O)C2CCCO2)c(OC)cc1NC(=O)c1ccccc1 (stereo not given),inconclusive: 25.9%,
Cc1ccc(S(=O)(=O)NCCC(=O)N2CCOCC2)cc1C,inconclusive: -7.13%,
CCOc1ccc(OCc2ccc(C(=O)NCc3ccncc3)o2)cc1,,"inconclusive: 6.51 µM [activator, partial curve, poor fit]"
CC(Oc1ccccc1F)C(=O)NNC(=O)CCS(=O)(=O)c1ccccc1Cl (stereo not given),inconclusive: 31.1%,
CCCCN(C(=O)Cc1ccc(S(=O)(=O)N2CCOCC2)s1)c1c(N)n(CCCC)c(=O)[nH]c1=O,,"inconclusive: 29.1 µM [rising, single point]"
CCOCCCn1c(SCC(=O)Nc2cc(OC)ccc2OC)nc2ccccc2c1=O,inconclusive: -25.7%,
O=C(C1CCN(S(=O)(=O)c2ccc(Br)s2)CC1)N1CCN(c2ccccc2)CC1,inconclusive: 6.11%,
COC(=O)c1cc(OC)c(OC)cc1NC(=S)N1CCN(c2ccccn2)CC1,inactive,
Oc1ccc(N=Nc2cccc(C(F)(F)F)c2)cc1C=Nc1ccc(N2CCOCC2)cc1,inconclusive: -9.76%,
Cc1cc(NC(=O)c2ccc(C)c(C)c2)no1,,"inconclusive: 29.1 µM [activator, partial curve, poor fit]"
Cc1ccccc1-n1c(-c2cccnc2)n[nH]c1=S,inconclusive: 5.88%,
Cc1ccc(S(=O)(=O)N(C)CC(=O)NCC(c2ccco2)N(C)C)cc1 (stereo not given),inconclusive: -8.87%,
Cn1c(N)c(C(=O)COC(=O)c2ccccc2C(=O)c2ccccc2)c(=O)n(C)c1=O,,"inconclusive: 32.6 µM [falling, single point]"
COc1ccc(/C=C2\Oc3cc(OC(=O)N4CCOCC4)ccc3C2=O)cc1,inconclusive: 8.38%,
Cc1nn(CC(=O)NCc2ccccc2)c(C)c1[N+](=O)[O-],inconclusive: -7.63%,
CCS(=O)(=O)c1ccc2oc(Nc3ccc(C(C)(C)C)cc3)nc2c1,inconclusive: -18.1%,
CC(C)CCN(C(=O)CCSc1ccc(F)cc1)c1c(N)n(Cc2ccccc2)c(=O)[nH]c1=O,inconclusive: -94.8%,
Cn1ccc(C(=O)N/N=C/c2ccncc2)n1,,"inconclusive: 29.1 µM [activator, single point]"
CC(Sc1nnc(C2CCCCC2)n1N)C(=O)NCc1ccc2c(c1)OCO2 (stereo not given),inconclusive: -11.4%,
Cc1cccc(C(=O)NC(=S)NNC(=O)c2ccccc2Cl)c1,inconclusive: 18.8%,
COc1cc(C(=O)Nc2ccc(S(=O)(=O)NC(C)C)cc2)cc(OC)c1OC,,"inconclusive: 2.31 µM [rising, partial curve]"
C/C(CC(=O)C(F)(F)F)=N\NC(=O)/C(C#N)=C/N(C)C,inconclusive: -23.7% [at 9.22 µM],

# Molecules from the list above containing a tert-butyl group:
SMILES,"lipid storage change, negative = inhibition",Potency
CC(C)(C)C(=O)/C=C(\N)c1ccncc1,inconclusive: 51.5%,
CCS(=O)(=O)c1ccc2oc(Nc3ccc(C(C)(C)C)cc3)nc2c1,inconclusive: -18.1%,
